Measurements reported in PubChem BioAssay AID652272 (Drosophila RNAi Screening Center, 2013)

Screen: 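Genes whose knock-down decreases or increases Hedgehog reporter output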 (primary screen)
Cell system: Drosophila clone 8 (Cl8) cells
Knock-down reagent: long dsRNA against Drosophila genes
Measurement: 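Firefly light from a Hedgehog-responsive ptc promoter reporter and Renilla reference light, both read on a plate reader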
Direction: firefly Hh reporter signal: higher = more ptc reporter light; Renilla reference signal: higher = more Renilla control light
Rule for the call: 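Hit when the z-score averaged over two replicates is under -2 or over +3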
Meaning of the calls: active = hit: reporter lowered or raised; inactive = not a hit
In all, the deposit lists about 21,000 reagents; below is an unselected part of those that have a named target and a result. In the full data, 503 (2.4%) got an active call. 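Raw plate light values, not normalised; calls rest on replicate z-scores that were not deposited; hits include reporter decreases as well as increases.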 Unmarked entries are inactive. A plus sign joins genes that one reagent is predicted to hit. Not stated in the record: the amount of reagent, the time to read-out.

Gene | DRSC id | firefly Hh reporter signal, replicate 1 | firefly Hh reporter signal, replicate 2 | firefly Hh reporter signal, replicate 3 | Renilla reference signal, replicate 1 | Renilla reference signal, replicate 2
Cpr47Ed | DRSC07331 | 96405 | 50516 | – | 2424 | 3895
Cht7 + tRNA:Cys-GCA-1-4 + tRNA:Lys-CTT-1-13 | DRSC08021 | 7.99e5 | 1.77e5 | 1.45e5 | 5558 | 5362
14-3-3zeta | DRSC05028 | 98257 | 72312 | – | 3896 | 2565
spartin | DRSC12187 | 1.55e5 | 1.77e5 | – | 5616 | 5377
dsh | DRSC19803 | 91490 | 2.33e5 | – | 3261 | 8502
CG13272 | DRSC02249 | 1.11e5 | 59270 | – | 2843 | 5376
T48 | DRSC16878 | 96404 | 94288 | – | 3192 | 2592
Ufd4 | DRSC02871 | 1.09e5 | 40871 | – | 3051 | 4682
pkaap | DRSC01925 | 86796 | 81476 | – | 2338 | 6499
CG10725 | DRSC09788 | 1.40e5 | 1.26e5 | – | 5657 | 4115
CG4957 | DRSC02793 | 1.48e5 | 69220 | – | 3889 | 5707
shps | DRSC14614 | 4.96e5 | 84838 | – | 22646 | 2388
Tps1 | DRSC00269 | 95864 | 70745 | – | 4688 | 2941
CG13288 | DRSC09962 | 68592 | 58402 | – | 7163 | 4582
CG12448 | DRSC01967 | 72112 | 61016 | – | 1808 | 5140
CG7872 | DRSC20062 | 94784 | 71571 | – | 2336 | 1778
CG15483 | DRSC02493 | 1.21e5 | 56742 | – | 3216 | 5091
CG1074 | DRSC12143 | 1.76e5 | 1.07e5 | – | 7168 | 4513
chrb | DRSC11335 | 2.02e5 | 5.20e5 | 1.20e5 | 7604 | 30592
Cp36 | DRSC18452 | 88144 | 2.01e5 | – | 3053 | 8698
Nup37 | DRSC14419 | 5.72e5 | 1.07e5 | – | 33521 | 3081
CG3253 | DRSC04350 | 1.63e5 | 1.35e5 | – | 6676 | 5411
CG5882 | DRSC15907 | 87258 | 1.11e5 | – | 3241 | 3081
Men | DRSC12924 | 31556 | 2.14e5 | – | 5203 | 2689
Men | DRSC16738 | 1.93e5 | 5.23e5 | 1.99e5 | 7675 | 4567
CG42566 | DRSC03949 | 1.60e5 | 2.41e5 | – | 4093 | 11686
scw | DRSC01711 | 1.21e5 | 2.14e5 | – | 3602 | 10717
scw | DRSC21252 | 83281 | 2.46e5 | – | 3531 | 9463
CG9581 | DRSC20695 | 1.94e5 | 5.86e5 | 1.30e5 | 4371 | 35033
LUBEL | DRSC02141 | 1.26e5 | 42000 | – | 3376 | 4369
Parg | DRSC18696 | 1.77e5 | 94405 | – | 4258 | 3290
Tis11 | DRSC20293 | 70437 | 54546 | – | 1612 | 1157
CG15046 | DRSC19622 | 86182 | 3.18e5 | – | 1184 | 13222
Cyp4d14 | DRSC18457 | 97552 | 2.78e5 | – | 3801 | 10121
SecCl | DRSC10887 | 1.21e5 | – | – | 4268 | 3283
CG2577 | DRSC19863 | 34256 | 1.38e5 | – | 964 | 6790
CG6321 | DRSC10623 | 1.22e5 | 88909 | – | 6378 | 3893
pyd3 | DRSC15459 | 2.29e5 | 9.68e5 | 1.29e5 | 8289 | 57661
sc | DRSC18830 | 57195 | 1.75e5 | – | 1212 | 7376
CG43277 | DRSC05800 | 1.38e5 | 2.84e5 | – | 3724 | 11509
CG11164 | DRSC19392 | 1.05e5 | 2.19e5 | – | 3075 | 7684
snoRNA:Me28S-C3420b + RpS11 | DRSC07396 | 1.08e5 | 52042 | – | 2962 | 4843
CG12118 | DRSC17813 | 93653 | 71824 | – | 2247 | 1978
disco-r | DRSC20173 | 80520 | 2.31e5 | – | 2204 | 10064
disco-r | DRSC20174 | 87863 | 2.27e5 | – | 2192 | 8763
ATPsynCF6 | DRSC14092 | 4.88e5 | 93027 | – | 21029 | 3037
CG11178 | DRSC19396 | 92951 | 87500 | – | 1830 | 1227
crol | DRSC03514 | 1.19e5 | 72762 | – | 4067 | 3267
Tsp42Ep | DRSC06871 | 95808 | 67330 | – | 4025 | 3033
if | DRSC20341 | 83675 | 3.04e5 | – | 3149 | 11408
CG17560 | DRSC15242 | 87687 | 1.37e5 | – | 3269 | 3805
AlaRS-m | DRSC09660 | 1.16e5 | 46396 | – | 4300 | 1808
MCU | DRSC10339 | 78445 | 62716 | – | 9473 | 3866
BoYb | DRSC11637 | 1.48e5 | 1.02e5 | – | 5987 | 4406
CG3987 | DRSC15531 | 1.39e5 | 1.07e5 | – | 5959 | 4557
GAPsec | DRSC10564 | 1.17e5 | 70647 | – | 4923 | 2897
CG13324 | DRSC06361 | 94587 | 63777 | – | 2298 | 4011

8 of these entries, reformatted.
| Gene | DRSC id | firefly Hh reporter signal, replicate 1 | firefly Hh reporter signal, replicate 2 | firefly Hh reporter signal, replicate 3 | Renilla reference signal, replicate 1 | Renilla reference signal, replicate 2 |
| --- | --- | --- | --- | --- | --- | --- |
| LUBEL | DRSC02141 | 1.26e5 | 42000 | – | 3376 | 4369 |
| Parg | DRSC18696 | 1.77e5 | 94405 | – | 4258 | 3290 |
| Tis11 | DRSC20293 | 70437 | 54546 | – | 1612 | 1157 |
| CG15046 | DRSC19622 | 86182 | 3.18e5 | – | 1184 | 13222 |
| Cyp4d14 | DRSC18457 | 97552 | 2.78e5 | – | 3801 | 10121 |
| SecCl | DRSC10887 | 1.21e5 | – | – | 4268 | 3283 |
| CG2577 | DRSC19863 | 34256 | 1.38e5 | – | 964 | 6790 |
| CG6321 | DRSC10623 | 1.22e5 | 88909 | – | 6378 | 3893 |
